Our source for the binding values is publication PMC4396377.

The target of test [1] is T1, Toll-like receptor 3 (TLR3), endogenous (mouse (endogenous in MEFs, RAW264.7 and BMDMs)) (UniProt Q99MB1).
T1 sequence: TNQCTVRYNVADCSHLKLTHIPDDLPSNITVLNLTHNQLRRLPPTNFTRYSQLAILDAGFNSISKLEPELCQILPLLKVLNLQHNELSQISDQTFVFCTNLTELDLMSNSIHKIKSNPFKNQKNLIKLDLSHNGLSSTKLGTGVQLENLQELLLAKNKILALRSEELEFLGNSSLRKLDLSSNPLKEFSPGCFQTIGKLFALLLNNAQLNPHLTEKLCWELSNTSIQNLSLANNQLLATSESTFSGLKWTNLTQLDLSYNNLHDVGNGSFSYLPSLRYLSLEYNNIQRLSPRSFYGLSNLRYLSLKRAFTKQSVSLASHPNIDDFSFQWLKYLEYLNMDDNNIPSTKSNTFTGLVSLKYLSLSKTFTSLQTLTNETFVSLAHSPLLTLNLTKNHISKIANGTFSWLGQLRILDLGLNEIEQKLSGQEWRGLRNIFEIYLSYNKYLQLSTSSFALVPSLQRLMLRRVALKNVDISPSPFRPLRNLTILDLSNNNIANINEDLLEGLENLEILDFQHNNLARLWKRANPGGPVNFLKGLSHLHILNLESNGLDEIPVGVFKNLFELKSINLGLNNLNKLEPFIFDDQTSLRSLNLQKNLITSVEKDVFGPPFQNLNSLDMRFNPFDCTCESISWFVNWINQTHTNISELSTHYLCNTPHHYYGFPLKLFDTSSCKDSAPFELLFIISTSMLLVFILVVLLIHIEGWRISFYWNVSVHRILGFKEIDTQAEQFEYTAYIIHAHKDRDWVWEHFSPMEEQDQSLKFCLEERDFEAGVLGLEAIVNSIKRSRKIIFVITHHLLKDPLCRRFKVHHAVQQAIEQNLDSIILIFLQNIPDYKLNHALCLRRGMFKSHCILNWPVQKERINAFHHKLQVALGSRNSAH
As to the kind of experiment: co-IP; Gsk3b+/+ MEFs stimulated with 10 μg/ml poly I:C for 10 min; immunoprecipitation with an anti-TLR3 antibody, western blotting; lysis buffer 50 mM Tris-HCl pH 8.0, 150 mM NaCl, 0.5% deoxycholate, 1% NP-40; 4 °C.

In test [2] the target is T2, IFN regulatory factor 3 (IRF3), endogenous (mouse (endogenous in MEFs)), P70671.
T2 chain: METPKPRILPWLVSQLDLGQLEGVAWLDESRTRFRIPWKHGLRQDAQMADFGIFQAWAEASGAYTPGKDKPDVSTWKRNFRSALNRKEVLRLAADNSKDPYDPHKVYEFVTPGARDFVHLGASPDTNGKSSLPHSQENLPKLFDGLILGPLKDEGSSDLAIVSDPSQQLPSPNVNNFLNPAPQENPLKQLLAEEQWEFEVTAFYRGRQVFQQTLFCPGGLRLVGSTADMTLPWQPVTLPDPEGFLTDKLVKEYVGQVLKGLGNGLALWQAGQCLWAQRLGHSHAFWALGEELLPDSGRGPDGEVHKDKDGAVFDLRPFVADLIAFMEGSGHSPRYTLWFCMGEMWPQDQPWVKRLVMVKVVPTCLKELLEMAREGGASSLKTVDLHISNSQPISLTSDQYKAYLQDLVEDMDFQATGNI
As to the kind of experiment: native gel or EMSA; Gsk3b+/+ and Gsk3b−/− MEFs stimulated with 10 μg/ml poly I:C for 1 h; lysates on 7.5% native gels with deoxycholate, blotted; Supplementary Fig. 4c. Conditions: remark: other sources report otherwise. In general terms: Mobility shift assays separate free from complexed probe on a gel.

These are yes or no findings as the source states them, for the method shown. For some assays here: In cells and extracts the contact can be indirect. Some results given as binding are weak or reduced against the parent protein; the word gives no strength.

B1: toll-interleukin 1 receptor homology-domain-containing adapter-inducing interferon-β (TRIF), endogenous (protein, UniProt Q80UF7 1-732)
chain: MDNPGPSLRGAFGILGALERDRLTHLKHKLGSLCSGSQESKLLHAMVLLALGQDTEARVSLESLKMNTVAQLVAHQWADMETTEGPEEPPDLSWTVARLYHLLAEENLCPASTRDMAYQVALRDFASQGDHQLGQLQNEAWDRCSSDIKGDPSGFQPLHSHQGSLQPPSASPAVTRSQPRPIDTPDWSWGHTLHSTNSTASLASHLEISQSPTLAFLSSHHGTHGPSKLCNTPLDTQEPQLVPEGCQEPEEISWPPSVETSVSLGLPHEISVPEVSPEEASPILPDALAAPDTSVHCPIECTELSTNSRSPLTSTTESVGKQWPITSQRSPQVPVGDDSLQNTTSSSPPAQPPSLQASPKLPPSPLSSASSPSSYPAPPTSTSPVLDHSETSDQKFYNFVVIHARADEQVALRIREKLETLGVPDGATFCEEFQVPGRGELHCLQDAIDHSGFTILLLTASFDCSLSLHQINHALMNSLTQSGRQDCVIPLLPLECSQAQLSPDTTRLLHSIVWLDEHSPIFARKVANTFKTQKLQAQRVRWKKAQEARTLKEQSIQLEAERQNVAAISAAYTAYVHSYRAWQAEMNKLGVAFGKNLSLGTPTPSWPGCPQPIPSHPQGGTPVFPYSPQPPSFPQPPCFPQPPSFPQPPSFPLPPVSSPQSQSFPSASSPAPQTPGPQPLIIHHAQMVQLGVNNHMWGHTGAQSSDDKTECSENPCMGPLTDQGEPLLETPE
Consider B1, for which the binding result in test [1] is on record as “binds”.

B2: IFN regulatory factor 3 (IRF3), endogenous, P70671 1-419 (protein)
chain: METPKPRILPWLVSQLDLGQLEGVAWLDESRTRFRIPWKHGLRQDAQMADFGIFQAWAEASGAYTPGKDKPDVSTWKRNFRSALNRKEVLRLAADNSKDPYDPHKVYEFVTPGARDFVHLGASPDTNGKSSLPHSQENLPKLFDGLILGPLKDEGSSDLAIVSDPSQQLPSPNVNNFLNPAPQENPLKQLLAEEQWEFEVTAFYRGRQVFQQTLFCPGGLRLVGSTADMTLPWQPVTLPDPEGFLTDKLVKEYVGQVLKGLGNGLALWQAGQCLWAQRLGHSHAFWALGEELLPDSGRGPDGEVHKDKDGAVFDLRPFVADLIAFMEGSGHSPRYTLWFCMGEMWPQDQPWVKRLVMVKVVPTCLKELLEMAREGGASSLKTVDLHISNSQPISLTSDQYKAYLQDLVEDMDFQATGNI
Consider B2, for which the binding entry in test [2] is reported as “binds”.
